# Primary screen of a compound library

Amino acid sequences for entries named in this document (tags omitted).
UniProt E9BF75, entry or part of it: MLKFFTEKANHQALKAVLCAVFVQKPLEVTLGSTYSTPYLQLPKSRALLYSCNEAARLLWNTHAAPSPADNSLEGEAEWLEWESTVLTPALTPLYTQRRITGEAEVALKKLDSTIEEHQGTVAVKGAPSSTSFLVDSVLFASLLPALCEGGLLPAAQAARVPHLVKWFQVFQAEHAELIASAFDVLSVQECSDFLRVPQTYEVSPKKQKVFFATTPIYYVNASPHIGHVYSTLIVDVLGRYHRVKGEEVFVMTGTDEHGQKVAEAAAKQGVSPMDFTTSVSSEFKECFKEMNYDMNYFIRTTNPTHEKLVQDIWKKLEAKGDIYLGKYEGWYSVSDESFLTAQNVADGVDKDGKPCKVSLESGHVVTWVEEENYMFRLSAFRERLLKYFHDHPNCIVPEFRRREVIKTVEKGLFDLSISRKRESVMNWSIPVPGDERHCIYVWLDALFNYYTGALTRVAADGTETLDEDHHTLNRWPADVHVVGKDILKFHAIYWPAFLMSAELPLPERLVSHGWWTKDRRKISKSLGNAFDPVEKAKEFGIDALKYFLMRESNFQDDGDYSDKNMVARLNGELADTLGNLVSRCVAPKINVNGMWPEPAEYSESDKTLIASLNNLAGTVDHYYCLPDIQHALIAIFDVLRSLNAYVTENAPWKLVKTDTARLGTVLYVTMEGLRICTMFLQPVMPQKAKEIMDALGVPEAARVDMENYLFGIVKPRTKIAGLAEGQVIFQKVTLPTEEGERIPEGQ

Source: ChEMBL document CHEMBL3988442, “University of Dundee, Small-Polar-MMV Screening Library” (2021).

Results are percentages, as filed. The controls that fix the scale are not given in the record; negative values are as filed. This is an unselected part of the compounds tested. A dash means the value is not listed here; it may have been measured.

Mtb heat-shock: 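Assay on Mycobacterium tuberculosis, filed only as a heat shock assay from Cornell; the read-out is not stated. The concentration is filed as 10 mM, unlikely as a test dose, so the dose is not known. Higher reads as stronger inhibition (inferred: compounds with an IC50 in retests scored well above the rest). Size under these conditions: about 69,000 compounds, about 930 of them at 50% or above in at least one test.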
LdMetRS: 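Primary screen of methionyl-tRNA synthetase; the read-out is not stated. Target: Methionyl-tRNA synthetase (putative), Leishmania donovani (UniProt E9BF75). The test concentration is not given. Values are per cent inhibition. Of about 68,000 compounds tested this way, about 24 (0.035%) reached 50% or more in at least one test.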
Mtb growth Cornell: 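Whole-cell assay for inhibitors of Mycobacterium tuberculosis growth, labelled Cornell in the record; the read-out is not stated. The concentration is filed as 10 mM, unlikely as a test dose, so the dose is not known. The record gives no direction; compounds strong in two other growth screens of this library score well above the rest, so higher reads as stronger inhibition. Size under these conditions: about 53,000 compounds, about 900 of them at 50% or above in at least one test.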

compound | Mtb heat-shock | LdMetRS | Mtb growth Cornell
COCCN1C[C@H]2CC[C@@H]1CN(C(=O)CCn1cc(Cl)cn1)C2 | - | 9.254 | -
Cc1nc(CN2CCC3(CCCN(Cc4ccoc4)C3)C2=O)cs1.O=C(O)C(F)(F)F.O=C(O)C(F)(F)F (stereo not given) | -16.93 | - | -23.82
CN1C(=O)CCCC12CCCN(C(=O)c1cccc(C(F)(F)F)c1)C2 (stereo not given) | 6.011 | 4.167 | -7.127
CCCN(Cc1ccccc1C)C(CC)CO (stereo not given) | 12.14 | 8.437 | 12.71
O=C(NCCN1CCCc2ccccc21)c1scnc1Cl | -0.2526 | 16.54 | -8.778
Cc1nn(-c2ccccc2)c(C)c1CNC1CCc2ncnn2C1 (stereo not given) | 14.22 | 13.5 | 8.837
CCOCCNC(=O)CCC1CCCO1 (stereo not given) | -1.161 | -1.52 | -14.11
Cc1cc(C)n(C2CCN(c3ncnc4c3CCC4)C2)n1 (stereo not given) | -26.55 | 4.826 | 0.5312
CN1C(=O)COc2cc(NC(=O)CCc3nc4cccnc4[nH]3)ccc21 | 23.88 | 6.636 | 11.88
Cc1cccc(CN2C[C@@H]3CN(C(=O)c4cnccn4)C[C@@H]3C2=O)n1 | - | 0 | -
CCC(=O)N1CCOC(c2cc(Nc3nncs3)cc(C)n2)C1 (stereo not given) | -5.926 | 13.37 | -8.84
c1cncc(OC[C@@]23CCO[C@@H]2CCN(Cc2cccs2)C3)c1 | - | 16.77 | -
COCCN(CCOC)C(=O)c1sc(C)nc1C | 17.88 | 21.31 | -
CS(=O)(=O)N1CC[C@@H]2O[C@@H](COCC(=O)N3CCCC3)CC[C@@H]21 | - | 6.25 | -
COc1cc(C)sc1C(=O)N1CCCC(n2nc(C)nc2C)C1 (stereo not given) | -13.47 | 12.68 | -
C[C@@H]1CN(Cc2ccc(-c3ccncc3)cc2F)CC(C(N)=O)O1 (stereo not given in full) | -15.4 | 0.8065 | -6.891
CCOCCC(=O)N1CCCN(c2ccccc2C)CC1 | 25.06 | - | -
Cc1nn(C)c(C)c1C1CCCN1Cc1nnc(C2CC2)n1C (stereo not given) | -23.37 | 8.791 | -
COc1nc2c(cc1C(=O)NCCCc1csc(N)n1)CCC2 | -2.653 | 13.77 | -33.58
Cc1nc(C)n(CC2CCCCN2CCS(C)(=O)=O)n1 (stereo not given) | -8.211 | 2.536 | -
[H][C@]12CC[C@@]3(N=C(CC)N(CC4CC4)C3=O)[C@@]1([H])CN(C(=O)NCC(C)C)C2 | -13.96 | - | 18.41
O=C1CCCN1CC1CCCCN1C(=O)Nc1cccc(F)c1 (stereo not given) | 2.603 | 20.72 | -
O=c1c(NCc2ccco2)c(NCC(O)CN2CCOCC2)c1=O (stereo not given) | -6.151 | 16.06 | 9.923
CCOCC1CN(C(=O)c2cnoc2C)Cc2cnn(C)c21.O=C(O)C(F)(F)F (stereo not given) | -22.7 | - | 17.5
CCN(CC(=O)NC(C)C)C(=O)c1csc(Cc2ccccc2)n1 | -213.2 | 11.18 | -
CCC(CNS(=O)(=O)c1c[nH]cn1)Oc1ccccc1F (stereo not given) | 1.911 | 6.407 | -
[H][C@@]12CCCO[C@]1([H])[C@H](NC(=O)CC1CC1)CN(C(=O)c1ccoc1C)C2 | 15.24 | - | 3.852
CN(CCCc1nccn1C)c1nccc(N2CCC(O)C2)n1 (stereo not given) | -3.691 | 6.529 | -
CCCS(=O)(=O)N1CCC2(CC1)CN(CC1CCOC1)c1ccccc12 (stereo not given) | - | 19.64 | -
N#Cc1cccc(CN2CC[C@@H]3[C@@H]2CC(=O)N3CCN2CCCC2)c1 | - | 13.43 | -
CC(C)(C)c1nc(CN2CCCC(Cn3cncn3)C2)cs1 (stereo not given) | -6.946 | 9.804 | -11.11
O=c1cc2c(nn1CN1CCC(c3ccccc3)CC1)CCC2 | -31.44 | 8.333 | 19.85
COCCN(C)C(C(=O)O)c1ccc(F)c(Cl)c1 (stereo not given) | -21.14 | 10 | -36.64
N#CCc1ccc(OCC(=O)N2CCCC(n3cccn3)C2)cc1 (stereo not given) | 4.992 | 8.591 | 1.76
[H][C@@]12C[C@@H](Oc3ccccc3)C[C@]1([H])CN(Cc1cnc(C)cn1)C2 | -15.31 | - | -14.02
CC(=O)N1CC2(CCN(Cc3ccc(Cl)cc3)CC2)Cc2ccccc21 | -24.57 | 12.57 | -
CC(C)N1CCC(Cc2cc(-c3cccc(C(=O)O)c3)ncn2)C1 (stereo not given) | 5.726 | 10.62 | -9.661
O=C(O)C(F)(F)F.O=C(O)C(F)(F)F.[H][C@@]12COC[C@]1(CN1CCOCC1)CN(Cc1cccc(OC)c1)C2 | -20.77 | - | 18.04
CNC(=O)[C@H]1C[C@@H]2CN(C(=O)c3cscn3)C[C@@H]2N1S(C)(=O)=O | - | 19.67 | -
COc1ccc(CNC[C@H]2COCc3nc4cccnc4n32)cc1 | -8.234 | 9.341 | -
O=C(NCC1CCN(Cc2cc3ccccc3[nH]2)C1)c1ccsc1 (stereo not given) | 2.323 | 14.66 | 45.3
CN1CCC2(CC1)C(=O)N(C)c1ccc(F)cc12.Cl | -0.1543 | - | 1.349
Cc1ccc(CN2CC[C@H]3OCC[C@@]3(C(=O)N3CCCO3)C2)s1 | - | 14.52 | -
O=C(c1c[nH]c(=O)[nH]1)N1CCCC2(CCC(=O)N(C3CCCC3)C2)C1 (stereo not given) | 9.881 | 3.351 | 3.756
CC(=O)N1CCCN(C(=O)NCCCN(C)S(C)(=O)=O)CC1 | 21.03 | 11.08 | -
CN(Cc1cccc(OC(F)(F)F)c1)C(=O)Cc1ccon1 | -13.25 | 5.495 | -1.347
COCCN(C)C[C@@H]1CN(C(=O)c2ccc(SC)cc2)C[C@@H]1CO | 11.04 | 9.577 | 4.494
Cn1cccc1C(=O)N1CCC2(CCN2c2ncccn2)C1.O=C(O)C(F)(F)F (stereo not given) | 8.832 | - | 4.768
Cc1nc2ccccc2nc1CN(C)C1CCCN(c2cccnn2)C1 (stereo not given) | -4.42 | 8.591 | -45.66
Cn1c(=O)n(C)c2nc(Cl)c(CC(=O)c3ccc(F)cc3)n2c1=O | 1.484 | 2.688 | 5.689
Cc1nnc2ccc(N3CCC(C(=O)Nc4nccs4)CC3)nn12 | -1.923 | 5.152 | -28.02
CN(C)C(=O)Cn1cc(C(=O)N2CCCc3cccc(F)c32)nn1 | 2.389 | 5.149 | -25.29
CC(C)c1nccn1-c1cccc(C2CCN(C)CC2)n1 | -30.76 | 5.822 | -18.36
CCC1CN(C)c2ccccc2CN1C(=O)Nc1ccccc1OC (stereo not given) | -27.66 | 9.137 | -
CC(C)c1ncc(CN2CCC(c3n[nH]cc3C(=O)N(C)C)C2)cn1 (stereo not given) | 22.53 | 15.22 | 2.935
Cc1nonc1C1CCCN1C(=O)CCc1cc2n(n1)CCCNC2 (stereo not given) | 10.68 | 4.326 | 20.84
Cc1cccc(N2CC3(CCN(S(=O)(=O)c4ccccc4)C3)CC2=O)c1 (stereo not given) | -27.19 | 12.59 | 29.45
COCCN1CCC2(COCc3cnc(-c4ccccc4)nc32)C1 (stereo not given) | - | 4.651 | -
[H][C@]12CN(Cc3nc(C)cs3)C[C@@]1([H])OCCN(S(C)(=O)=O)C2 | 2.426 | - | -10.78
N#CCSCC(=O)NCC1CCCCC1 | 9.523 | 20.34 | 8.731
O=C(c1sccc1-n1cnnn1)N1CCC2(CCCCC2)CC1 | -27.25 | 10.59 | 14.17
CCN(C)c1ncnc2c1CCN(S(=O)(=O)c1ccccc1)CC2 | - | 13.49 | -
O=C1NCCCCC1Sc1nnc(N2CCCC2)n1C1CC1 (stereo not given) | -25.81 | 4.348 | -56.05

Some entries from above, unchanged:

With Cn1c(=O)n(C)c2nc(Cl)c(CC(=O)c3ccc(F)cc3)n2c1=O the screen gave Mtb heat-shock: 1.484%; LdMetRS: 2.688%; Mtb growth Cornell: 5.689%.
With Cc1ccc(CN2CC[C@H]3OCC[C@@]3(C(=O)N3CCCO3)C2)s1 the screen gave LdMetRS: 14.52%.
With CC(C)c1ncc(CN2CCC(c3n[nH]cc3C(=O)N(C)C)C2)cn1 (stereo not given) the screen gave Mtb heat-shock: 22.53%; LdMetRS: 15.22%; Mtb growth Cornell: 2.935%.
With Cn1cccc1C(=O)N1CCC2(CCN2c2ncccn2)C1.O=C(O)C(F)(F)F (stereo not given) the screen gave Mtb heat-shock: 8.832%; Mtb growth Cornell: 4.768%.